Results deposited as PubChem BioAssay AID1159584 (Peter MacCallum Cancer Centre, 2016)

Assay: 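Genes whose loss is lethal only together with E-cadherin loss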 (primary screen)
System: human MCF10A breast epithelial cells, parental and CDH1-null
Reagents: siRNA against human genes
Measurement: 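Cell viability by CellTiter-Glo ATP luminescence, each line scaled to the mean of mock wells across plates, then CDH1-null over parental ratio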
Scale: CDH1-null / parental viability ratio: higher = CDH1-null cells survive relatively better than parental
In all, the deposit lists about 18,000 reagents; this is a random part of them. The numbers tell different reagents against one gene apart. Further read-outs or replicates are left out here. Not stated in the record: the amount of reagent, the time to read-out.

gene symbol,reagent no.,CDH1-null / parental viability ratio
AGXT2 (alanine--glyoxylate aminotransferase 2),1,0.83
BBC3 (BCL2 binding component 3),1,0.81
EPHB1 (EPH receptor B1),1,0.9
LCE2C (late cornified envelope 2C),1,0.92
"TNNI2 (troponin I2, fast skeletal type)",1,1.3
CCNA1 (cyclin A1),1,1.01
CHMP6 (charged multivesicular body protein 6),1,0.87
H2BC17 (H2B clustered histone 17),1,0.9
CLPSL1 (colipase like 1),1,1.11
ZFYVE9 (zinc finger FYVE-type containing 9),1,0.84
L3MBTL3 (L3MBTL histone methyl-lysine binding protein 3),1,0.95
IFT88 (intraflagellar transport 88),1,1.1
LETM2,1,1.08
SCAMP1,1,1.26
AVEN (apoptosis and caspase activation inhibitor),1,1.14
CACNG2 (calcium voltage-gated channel auxiliary subunit gamma 2),1,1.12
CIAPIN1 (cytokine induced apoptosis inhibitor 1),1,0.93
HPRT1 (hypoxanthine phosphoribosyltransferase 1),1,1.04
"MAGOHB (mago homolog B, exon junction complex subunit)",1,1.06
"AGL (amylo-alpha-1,6-glucosidase and 4-alpha-glucanotransferase)",1,0.73
SLC7A3,1,0.74
TTLL8 (tubulin tyrosine ligase like 8),1,1.6
MMP9 (matrix metallopeptidase 9),1,1.17
MICAL2,1,1.06
MICAL2,2,0.99
PADI1 (peptidyl arginine deiminase 1),1,0.98
ZNF239 (zinc finger protein 239),1,1.21
IFIT1 (interferon induced protein with tetratricopeptide repeats 1),1,0.64
SNTB2 (syntrophin beta 2),1,1
SOX30 (SRY-box transcription factor 30),1,1.12
FREM2 (FRAS1 related extracellular matrix 2),1,1.12
GLMP (glycosylated lysosomal membrane protein),1,0.95
GSTM3 (glutathione S-transferase mu 3),1,0.98
RUNDC3A (RUN domain containing 3A),1,1.11
RNF39 (ring finger protein 39),1,0.92
RPS12 (ribosomal protein S12),1,1.19
ENHO (energy homeostasis associated),1,1.09
NOBOX (NOBOX oogenesis homeobox),1,0.8
ABCC9 (ATP binding cassette subfamily C member 9),1,1.3
G3BP2 (G3BP stress granule assembly factor 2),1,1
WDR55 (WD repeat domain 55),1,1
CLIP4 (CAP-Gly domain containing linker protein family member 4),1,1.09
FAM27E5 (family with sequence similarity E5),1,1.27
EP400 (E1A binding protein p400),1,1.55
NOTCH1 (notch receptor 1),1,1
WASL (WASP like actin nucleation promoting factor),1,1.04
OR10J3,1,1.39
HSPH1 (heat shock protein family H (Hsp110) member 1),1,0.75
NEDD1 (NEDD1 gamma-tubulin ring complex targeting factor),1,0.87
TRIM5 (tripartite motif containing 5),1,0.58
CYP27B1 (cytochrome P450 family 27 subfamily B member 1),1,1.04
SEMA4F (ssemaphorin 4F),1,1.04
OR10Q1 (olfactory receptor family 10 subfamily Q member 1),1,0.73
DUSP29 (dual specificity phosphatase 29),1,1.1
IPO11 (importin 11),1,0.95
RAMP3 (receptor activity modifying protein 3),1,1.03
TUSC1 (tumor suppressor candidate 1),1,1.08
"PYGM (glycogen phosphorylase, muscle associated)",1,0.7
"PRAG1 (PEAK1 related, kinase-activating pseudokinase 1)",1,1.16
BAD (BCL2 associated agonist of cell death),1,1.18
FKBP11 (FKBP prolyl isomerase 11),1,1.38
ABHD8 (abhydrolase domain containing 8),1,1
PGK1 (phosphoglycerate kinase 1),1,0.77
ANO8 (anoctamin 8),1,1.15
OR4F5 (olfactory receptor family 4 subfamily F member 5),1,1.32
CASP8 (caspase 8),1,1.08
SMC5 (structural maintenance of chromosomes 5),1,0.84
KLHDC3 (kelch domain containing 3),1,1.7
UBLCP1 (ubiquitin like domain containing CTD phosphatase 1),1,1.35
TRIM10 (tripartite motif containing 10),1,1.05
ZNF622 (zinc finger protein 622),1,1
APH1A (aph-1A gamma-secretase subunit),1,0.7
CLSTN2 (calsyntenin 2),1,1
PCBP2 (poly(rC) binding protein 2),1,0.96
TOP3A (DNA topoisomerase III alpha),1,0.99
PCDH10 (protocadherin 10),1,0.95
APOBEC3C (apolipoprotein B mRNA editing enzyme catalytic subunit 3C),1,1
TIMM21 (translocase of inner mitochondrial membrane 21),1,0.91
USP4 (ubiquitin specific peptidase 4),1,1.04
ARHGAP24 (Rho GTPase activating protein 24),1,0.88
PLBD1 (phospholipase B domain containing 1),1,1.16
UBTFL7 (UBTF like 7 (pseudogene)),1,0.74
RFFL,1,0.99
RRS1 (regulator of ribosome synthesis 1),1,0.76
ADORA1 (adenosine A1 receptor),1,0.75
MORF4L2 (mortality factor 4 like 2),1,0.9
DNAJC16 (DnaJ heat shock protein family (Hsp40) member C16),1,1.04

Already shown: entries from further up.
gene symbol,reagent no.,CDH1-null / parental viability ratio
GSTM3 (glutathione S-transferase mu 3),1,0.98
RUNDC3A (RUN domain containing 3A),1,1.11
RNF39 (ring finger protein 39),1,0.92
RPS12 (ribosomal protein S12),1,1.19
ENHO (energy homeostasis associated),1,1.09
NOBOX (NOBOX oogenesis homeobox),1,0.8
ABCC9 (ATP binding cassette subfamily C member 9),1,1.3
G3BP2 (G3BP stress granule assembly factor 2),1,1
WDR55 (WD repeat domain 55),1,1
CLIP4 (CAP-Gly domain containing linker protein family member 4),1,1.09
FAM27E5 (family with sequence similarity E5),1,1.27
EP400 (E1A binding protein p400),1,1.55
NOTCH1 (notch receptor 1),1,1
WASL (WASP like actin nucleation promoting factor),1,1.04
